These are yes or no findings as the source states them, for the method shown. Binding calls can cover weak binding; strength is not graded here. For some assays here: Tags and fused reporters may be left off the sequences shown. For some assays here: In cells and extracts the contact can be indirect. One block for each binder: values may come before it.
Experiments:
[1] = biological target: >99% purified bovine tubulin (α/β-tubulin heterodimer) (bovine); assay: co-purification with tubulin, immunoblot
[2] = biological target: GST-SET8 N-terminal portion (human); assay: pull-down

binding [1]: binds
B1: SET8 present in the purified bovine tubulin preparation (enzyme, UniProt Q2YDJ8 1-352)
chain: MARGRKMSKPRAVEAAAAAAAVAATAPGPEMVERRGPGRPRTNGENVFTGQSKIYTYMSPNKCSGMRSPLQEENSVAQYEVKCQGKPLAGIYRKRDEKRNSGNAIRSSMKAEEQKIKDARRGPLAPFPNQKSEAAEPPKTPTSSCDTPNAAAAKQGLKKPVRGKQAPRKKAQGKTQQNRKLTDFYPVRRSSRKSKAELQSEERKRIDELIESGKEEGMKIDLIDGKGRGVIATKQFSRGEFVVEYHGDLIEITDAKKREALYAQDPSTGCYMYYFQYLSKTYCVDATRETNRLGRLINHSKCGNCQTKLHDIDGVPHLILIASRDIEAGEELLYDYGDRSRASIEAYPWLKH

binding [2]: binds
B2: His-tagged LSF (protein, UniProt Q12800 1-502)
chain: MAWALKLPLADEVIESGLVQDFDASLSGIGQELGAGAYSMSDVLALPIFKQEESSLPPDNENKILPFQYVLCAATSPAVKLHDETLTYLNQGQSYEIRMLDNRKLGELPEINGKLVKSIFRVVFHDRRLQYTEHQQLEGWRWNRPGDRILDIDIPMSVGIIDPRANPTQLNTVEFLWDPAKRTSVFIQVHCISTEFTMRKHGGEKGVPFRVQIDTFKENENGEYTEHLHSASCQIKVFKPKGADRKQKTDREKMEKRTPHEKEKYQPSYETTILTECSPWPEITYVNNSPSPGFNSSHSSFSLGEGNGSPNHQPEPPPPVTDNLLPTTTPQEAQQWLHRNRFSTFTRLFTNFSGADLLKLTRDDVIQICGPADGIRLFNALKGRMVRPRLTIYVCQESLQLREQQQQQQQQQQKHEDGDSNGTFFVYHAIYLEELTAVELTEKIAQLFSISPCQISQIYKQGPTGIHVLISDEMIQNFQEEACFILDTMKAETNDSYHIILK

Reference: article doi:10.1101/665984
